Counter-ions that a name gives are not always drawn.
Test: [125I]MIBG levels in normal tissues of xenografted mice
Format: in vivo, BALB/c nu/nu mice

SMILES	Decrease in MIBG levels in the liver (20 mg/kg IP) [%]	Increase in MIBG levels in the liver (2 mg/kg IP) [%]
CN(C)CCCC1(c2ccc(F)cc2)OCc2cc(C#N)ccc21 (centres unmarked) [Citalopram, citalopram-HBr]	35	–
Fc1ccc([C@@H]2CCNC[C@H]2COc2ccc3c(c2)OCO3)cc1 [Paroxetine, paroxetine-HCl]	–	17

— publication PMC7343696 (EJNMMI Research, 2020)
